PubChem BioAssay AID1224830 | NIAID | 2016
Here is a random part of about 18,000 reagents tested. About 2,900 of all reagents (16%) count as active. 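Calls are made per well; low scores hint the gene aids the LPS response, high scores that it dampens it.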 Entries without a mark were called inactive. Repeated entries: four replicate wells of each siRNA pool.

Purpose: 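Genes whose knock-down alters the TNF-alpha reporter response to LPS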 (primary screen)
System: human THP-1 monocytic leukaemia cells, TNF dual-luciferase reporter clone, PMA-differentiated to macrophage-like cells
Reagents: siRNA pool against human genes, 50 nM
Time to read-out: LPS for 4 h, given about 3 days after siRNA transfection
Treatment: bacterial LPS (TLR4 ligand), 10 ng/ml
Read-out: 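TNF firefly reporter luminescence divided by renilla, normalised to the plate median, then turned into a robust z-score for each replicate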
Scale: TNF reporter robust z-score: higher = stronger TNF reporter response to LPS
Call rule: 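a well is active when its z-score exceeds 2.8 or falls below -1.5; control wells carry no call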

no.	gene	TNF reporter robust z-score
1	CLK2	-1.59 (active)
2	CLK2	-0.64
3	CLK2	-0.72
4	CLK2	-0.47
5	VSNL1	-1.18
6	VSNL1	-0.71
7	VSNL1	-0.83
8	VSNL1	-1.2
9	SIDT2	-0.83
10	SIDT2	1.35
11	SIDT2	0.57
12	SIDT2	0.71
13	MCTS1	-0.06
14	MCTS1	0
15	MCTS1	0.13
16	MCTS1	0.81
17	RAB5B	0.96
18	RAB5B	0.27
19	RAB5B	0.31
20	RAB5B	1.04
21	SMCO1	-0.04
22	SMCO1	0.06
23	SMCO1	0.13
24	SMCO1	-0.62
25	TSPEAR	0.51
26	TSPEAR	1.35
27	TSPEAR	1.08
28	TSPEAR	1.07
29	CD8B	-0.52
30	CD8B	0.54
31	CD8B	0.7
32	CD8B	0.55
33	STK32A	0.48
34	STK32A	1.05
35	STK32A	0.34
36	STK32A	0.97
37	GNPDA2	0.78
38	GNPDA2	0.15
39	GNPDA2	0.36
40	GNPDA2	2.02

Hits (from the list above):
gene	TNF reporter robust z-score
CLK2	-1.59 (active)

Continued.
no.	gene	TNF reporter robust z-score
41	IRF4	-0.12
42	IRF4	-0.27
43	IRF4	-0.3
44	IRF4	-0.46
45	BSDC1	0.26
46	BSDC1	0.31
47	BSDC1	1.22
48	BSDC1	0.57
49	GSPT1	0.2
50	GSPT1	3.17 (active)
51	GSPT1	-0.62
52	GSPT1	-0.53
53	PSD4	-1.27
54	PSD4	-1.1
55	PSD4	-0.77
56	PSD4	-1.05
57	LACRT	-1.28
58	LACRT	-0.32
59	LACRT	-0.19
60	LACRT	0.03
61	TNFRSF8	0.88
62	TNFRSF8	-1.67 (active)
63	TNFRSF8	-1.68 (active)
64	TNFRSF8	1.07
65	FZD6	-0.52
66	FZD6	0.51
67	FZD6	0.67
68	FZD6	0.48
69	RBM45	0.98
70	RBM45	0.37
71	RBM45	1.35
72	RBM45	1.24
73	NR6A1	-0.36
74	NR6A1	0.04
75	NR6A1	0.92
76	NR6A1	-0.28
